Data on four substances can be found in paper PMC10042540, “Targeting oncogenic KRasG13C with nucleotide-based covalent inhibitors” (eLife, 2023).

The series relates to KRas. The experiment in a line: Electroporation into HeLa cells, western blot quantification. In kind it is cell-based, human. The conditions noted are these: for KRas mean fold change: mean of cell lysates. In general terms: A western blot detects proteins with antibodies after separation by electrophoresis.

As to “KRasG13C-edaGDP: KRasG13C covalently locked with edaGDP at Cys13”, the KRas fold change by setting is: (50 µg, Cell lysate 1) 3.66; (50 µg, Cell lysate 2) 7.00; (50 µg, Cell lysate 3) 3.42; (100 µg, Cell lysate 1) 7.36; (100 µg, Cell lysate 2) 10.20; (100 µg, Cell lysate 3) 10.00. For the same substance, the KRas fold change is, setting by setting: (200 µg, Cell lysate 1) 15.00; (200 µg, Cell lysate 2) 18.10; (200 µg, Cell lysate 3) 17.60; (300 µg, Cell lysate 1) 14.00; (300 µg, Cell lysate 2) 33.80; (300 µg, Cell lysate 3) 27.10. For the same substance, the “KRas mean fold change” value runs as follows: (50 µg) 4.69; (100 µg) 9.19; (200 µg) 16.90; (300 µg) 24.97.

With “KRasG13C-edaGppCp: KRasG13C covalently modified with edaGppCp”, the KRas fold change reads like this: (50 µg, Cell lysate 1) 2.70; (50 µg, Cell lysate 2) 3.63; (100 µg, Cell lysate 1) 22.50; (100 µg, Cell lysate 2) 7.10; (200 µg, Cell lysate 1) 18.20; (200 µg, Cell lysate 2) 8.84. The KRas fold change is 32.00 (300 µg, Cell lysate 1) and 13.00 (300 µg, Cell lysate 2). The “KRas mean fold change” value turned out to be 3.17 (50 µg), 14.80 (100 µg), 13.52 (200 µg) and 22.50 (300 µg).

For the substance “KRasG13C: recombinant oncogenic KRasG13C mutant protein, GDP-bound”, the KRas fold change (50 µg, Cell lysate 1) is on record as 10.10; the KRas fold change (50 µg, Cell lysate 2) is 12.20; the KRas fold change (50 µg, Cell lysate 3) is reported as 2.79; the KRas fold change (100 µg, Cell lysate 1) was found to be 16.60; the KRas fold change (100 µg, Cell lysate 2) is recorded as 17.60; the KRas fold change (100 µg, Cell lysate 3) came out at 4.10. The KRas fold change by setting is: (200 µg, Cell lysate 1) 37.90; (200 µg, Cell lysate 2) 21.60; (200 µg, Cell lysate 3) 13.40; (300 µg, Cell lysate 1) 53.60; (300 µg, Cell lysate 2) 30.50; (300 µg, Cell lysate 3) 20.80. Further, the “KRas mean fold change” value by setting is: (50 µg) 8.36; (100 µg) 12.77; (200 µg) 24.30; (300 µg) 34.97.

With “KRasG13C:acetyledaGDP: KRasG13C non-covalently loaded with acetyledaGDP, control”, the KRas fold change (50 µg, Cell lysate 1) is 1.86; the KRas fold change (50 µg, Cell lysate 2) is 3.06; the KRas fold change (50 µg, Cell lysate 3) came to 2.70; the KRas fold change (100 µg, Cell lysate 1) came out at 3.77; the KRas fold change (100 µg, Cell lysate 2) was 6.87; the KRas fold change (100 µg, Cell lysate 3) is listed as 3.59. The KRas fold change by setting is: (200 µg, Cell lysate 1) 13.20; (200 µg, Cell lysate 2) 34.60; (200 µg, Cell lysate 3) 13.20; (300 µg, Cell lysate 1) 25.20; (300 µg, Cell lysate 2) 50.90; (300 µg, Cell lysate 3) 19.70. The “KRas mean fold change” value (50 µg) is reported as 2.54, the “KRas mean fold change” value (100 µg) worked out at 4.74, the “KRas mean fold change” value (200 µg) turned out to be 20.33 and the “KRas mean fold change” value (300 µg) came out at 31.93.
